Reference: publication PMC12241364
These are yes or no findings as the source states them, for the method shown. Binding seen in cells or lysates may run through a third protein. A yes stands for co-enrichment or nearness to the bait. Other partners may have been found. A no says only that the protein was not detected with the bait.

Sequences of proteins named here, by UniProt entry; tags and fusion partners are left off.
UniProt Q0D2I5: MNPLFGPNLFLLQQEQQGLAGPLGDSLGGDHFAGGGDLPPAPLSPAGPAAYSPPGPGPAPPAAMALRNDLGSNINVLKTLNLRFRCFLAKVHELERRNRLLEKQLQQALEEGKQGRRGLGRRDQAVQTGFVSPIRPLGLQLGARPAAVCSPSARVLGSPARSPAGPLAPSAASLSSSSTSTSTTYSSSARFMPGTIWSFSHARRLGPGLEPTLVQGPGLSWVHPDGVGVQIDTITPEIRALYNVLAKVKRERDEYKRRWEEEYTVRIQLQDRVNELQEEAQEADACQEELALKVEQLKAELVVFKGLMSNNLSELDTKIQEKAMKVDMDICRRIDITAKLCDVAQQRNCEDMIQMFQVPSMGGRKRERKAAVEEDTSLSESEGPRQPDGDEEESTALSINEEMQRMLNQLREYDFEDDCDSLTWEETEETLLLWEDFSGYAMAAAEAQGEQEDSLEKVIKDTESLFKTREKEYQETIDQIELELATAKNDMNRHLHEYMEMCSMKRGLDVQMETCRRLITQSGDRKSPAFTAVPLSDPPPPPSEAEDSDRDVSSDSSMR
UniProt Q86VI3: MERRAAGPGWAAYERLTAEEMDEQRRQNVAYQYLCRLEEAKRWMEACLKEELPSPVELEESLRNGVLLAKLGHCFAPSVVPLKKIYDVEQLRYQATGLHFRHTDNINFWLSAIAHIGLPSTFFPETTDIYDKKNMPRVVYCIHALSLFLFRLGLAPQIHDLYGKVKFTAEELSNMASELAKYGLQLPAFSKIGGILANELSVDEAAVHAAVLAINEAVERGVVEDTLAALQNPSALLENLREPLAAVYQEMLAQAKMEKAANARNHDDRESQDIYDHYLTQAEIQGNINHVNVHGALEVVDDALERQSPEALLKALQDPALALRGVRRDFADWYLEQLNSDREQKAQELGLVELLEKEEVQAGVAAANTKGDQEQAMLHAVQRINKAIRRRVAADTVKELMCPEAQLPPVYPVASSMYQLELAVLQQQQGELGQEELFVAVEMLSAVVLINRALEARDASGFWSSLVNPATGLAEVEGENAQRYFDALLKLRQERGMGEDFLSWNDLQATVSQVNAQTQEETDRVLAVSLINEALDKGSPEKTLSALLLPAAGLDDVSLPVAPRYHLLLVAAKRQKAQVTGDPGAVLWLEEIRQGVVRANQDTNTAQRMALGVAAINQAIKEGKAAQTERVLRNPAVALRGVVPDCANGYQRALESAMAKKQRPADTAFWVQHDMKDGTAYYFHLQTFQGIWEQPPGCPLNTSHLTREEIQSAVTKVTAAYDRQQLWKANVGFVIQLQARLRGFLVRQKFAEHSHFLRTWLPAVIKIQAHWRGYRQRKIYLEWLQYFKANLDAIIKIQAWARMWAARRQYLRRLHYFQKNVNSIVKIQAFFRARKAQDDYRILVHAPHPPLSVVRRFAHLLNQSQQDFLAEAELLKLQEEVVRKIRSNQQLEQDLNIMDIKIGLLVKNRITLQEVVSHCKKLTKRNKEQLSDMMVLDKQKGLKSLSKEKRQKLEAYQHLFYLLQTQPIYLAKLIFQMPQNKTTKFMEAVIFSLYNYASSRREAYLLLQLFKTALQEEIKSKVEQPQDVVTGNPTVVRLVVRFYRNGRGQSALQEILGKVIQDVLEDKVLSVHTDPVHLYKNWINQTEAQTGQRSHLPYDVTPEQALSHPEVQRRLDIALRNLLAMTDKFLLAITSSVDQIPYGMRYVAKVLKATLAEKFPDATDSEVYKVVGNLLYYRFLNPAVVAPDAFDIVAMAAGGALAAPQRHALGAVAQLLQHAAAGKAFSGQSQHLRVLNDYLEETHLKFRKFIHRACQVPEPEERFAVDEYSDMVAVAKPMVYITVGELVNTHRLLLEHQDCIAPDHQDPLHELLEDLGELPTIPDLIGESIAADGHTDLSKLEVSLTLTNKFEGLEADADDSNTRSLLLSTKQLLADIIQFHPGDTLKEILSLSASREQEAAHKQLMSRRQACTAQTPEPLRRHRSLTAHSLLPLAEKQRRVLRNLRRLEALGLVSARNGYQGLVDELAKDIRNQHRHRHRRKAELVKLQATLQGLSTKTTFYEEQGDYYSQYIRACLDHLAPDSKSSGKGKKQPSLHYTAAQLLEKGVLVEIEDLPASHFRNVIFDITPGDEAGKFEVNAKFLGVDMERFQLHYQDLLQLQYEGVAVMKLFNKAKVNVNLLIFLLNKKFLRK
UniProt P60953: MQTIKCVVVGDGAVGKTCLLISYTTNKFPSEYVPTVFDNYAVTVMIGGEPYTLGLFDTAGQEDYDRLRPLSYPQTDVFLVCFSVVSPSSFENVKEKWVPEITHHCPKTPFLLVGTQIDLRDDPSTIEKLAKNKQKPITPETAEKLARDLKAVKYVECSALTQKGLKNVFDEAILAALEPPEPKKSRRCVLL

Target: Flag-tagged IFFO1 (full-length) (UniProt Q0D2I5)
Assay: affinity purification with mass spectrometry; Flag-tagged IFFO1 immunoprecipitated from tumor cells; silver staining and peptide identification by LC-MS/MS

| binding | Substance |
| --- | --- |
| binds | IQGAP3 (IQ motif-containing GTPase-activating protein 3), endogenous (from UniProt Q86VI3 1-1631) |
| no binding | Cdc42, endogenous (from UniProt P60953 1-191) |
